Hit rate of the full screen: of about 290,000 compounds, about 110 (0.038%) were called active. The shares of active, inactive and inconclusive entries below differ from those in the screen. Calls come from the whole dose curve; as a rule, active = well fitted inhibition curve with a large enough effect in the polarisation, with a control signal flat (not every such curve was filed as active); inconclusive = small, poorly fitted or top-dose-only effect, or effect the other way, or a change in a side signal; inactive = no such curve, though single readings can be large or run the other way; the % refers to the polarisation. Potencies of inconclusive entries are doubtful fits and often do not repeat. “Side channel” marks fits to a control or component signal instead of the main read-out.
Biological target: Histone-lysine N-methyltransferase 2A (Homo sapiens) (UniProt Q03164)
Test: qHTS Fluorescence Polarization Assay for Inhibitors of MLL CXXC domain - DNA interaction
Conditions: MLL-CXXC / FITC-HOXA9 DNA fluorescence polarization; activity change, negative = inhibition: at 115 µM (top of the series)
Summary of the method: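 Steps: dispense CXXC domain solution (7 uM) → pin compounds or unlabeled HOX-A9 DNA control → 5 min ambient → add FLSN-HOX-A9 solution (50 nM) → spin → 30 min ambient → fluorescence polarization. Tris pH 7.5/NaCl/DTT/BSA buffer.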
Potency is the fitted concentration of half-maximal effect.

Sequences of proteins named here, by UniProt entry; tags and fusion partners are left off.
UniProt Q03164, whole entry, looked up: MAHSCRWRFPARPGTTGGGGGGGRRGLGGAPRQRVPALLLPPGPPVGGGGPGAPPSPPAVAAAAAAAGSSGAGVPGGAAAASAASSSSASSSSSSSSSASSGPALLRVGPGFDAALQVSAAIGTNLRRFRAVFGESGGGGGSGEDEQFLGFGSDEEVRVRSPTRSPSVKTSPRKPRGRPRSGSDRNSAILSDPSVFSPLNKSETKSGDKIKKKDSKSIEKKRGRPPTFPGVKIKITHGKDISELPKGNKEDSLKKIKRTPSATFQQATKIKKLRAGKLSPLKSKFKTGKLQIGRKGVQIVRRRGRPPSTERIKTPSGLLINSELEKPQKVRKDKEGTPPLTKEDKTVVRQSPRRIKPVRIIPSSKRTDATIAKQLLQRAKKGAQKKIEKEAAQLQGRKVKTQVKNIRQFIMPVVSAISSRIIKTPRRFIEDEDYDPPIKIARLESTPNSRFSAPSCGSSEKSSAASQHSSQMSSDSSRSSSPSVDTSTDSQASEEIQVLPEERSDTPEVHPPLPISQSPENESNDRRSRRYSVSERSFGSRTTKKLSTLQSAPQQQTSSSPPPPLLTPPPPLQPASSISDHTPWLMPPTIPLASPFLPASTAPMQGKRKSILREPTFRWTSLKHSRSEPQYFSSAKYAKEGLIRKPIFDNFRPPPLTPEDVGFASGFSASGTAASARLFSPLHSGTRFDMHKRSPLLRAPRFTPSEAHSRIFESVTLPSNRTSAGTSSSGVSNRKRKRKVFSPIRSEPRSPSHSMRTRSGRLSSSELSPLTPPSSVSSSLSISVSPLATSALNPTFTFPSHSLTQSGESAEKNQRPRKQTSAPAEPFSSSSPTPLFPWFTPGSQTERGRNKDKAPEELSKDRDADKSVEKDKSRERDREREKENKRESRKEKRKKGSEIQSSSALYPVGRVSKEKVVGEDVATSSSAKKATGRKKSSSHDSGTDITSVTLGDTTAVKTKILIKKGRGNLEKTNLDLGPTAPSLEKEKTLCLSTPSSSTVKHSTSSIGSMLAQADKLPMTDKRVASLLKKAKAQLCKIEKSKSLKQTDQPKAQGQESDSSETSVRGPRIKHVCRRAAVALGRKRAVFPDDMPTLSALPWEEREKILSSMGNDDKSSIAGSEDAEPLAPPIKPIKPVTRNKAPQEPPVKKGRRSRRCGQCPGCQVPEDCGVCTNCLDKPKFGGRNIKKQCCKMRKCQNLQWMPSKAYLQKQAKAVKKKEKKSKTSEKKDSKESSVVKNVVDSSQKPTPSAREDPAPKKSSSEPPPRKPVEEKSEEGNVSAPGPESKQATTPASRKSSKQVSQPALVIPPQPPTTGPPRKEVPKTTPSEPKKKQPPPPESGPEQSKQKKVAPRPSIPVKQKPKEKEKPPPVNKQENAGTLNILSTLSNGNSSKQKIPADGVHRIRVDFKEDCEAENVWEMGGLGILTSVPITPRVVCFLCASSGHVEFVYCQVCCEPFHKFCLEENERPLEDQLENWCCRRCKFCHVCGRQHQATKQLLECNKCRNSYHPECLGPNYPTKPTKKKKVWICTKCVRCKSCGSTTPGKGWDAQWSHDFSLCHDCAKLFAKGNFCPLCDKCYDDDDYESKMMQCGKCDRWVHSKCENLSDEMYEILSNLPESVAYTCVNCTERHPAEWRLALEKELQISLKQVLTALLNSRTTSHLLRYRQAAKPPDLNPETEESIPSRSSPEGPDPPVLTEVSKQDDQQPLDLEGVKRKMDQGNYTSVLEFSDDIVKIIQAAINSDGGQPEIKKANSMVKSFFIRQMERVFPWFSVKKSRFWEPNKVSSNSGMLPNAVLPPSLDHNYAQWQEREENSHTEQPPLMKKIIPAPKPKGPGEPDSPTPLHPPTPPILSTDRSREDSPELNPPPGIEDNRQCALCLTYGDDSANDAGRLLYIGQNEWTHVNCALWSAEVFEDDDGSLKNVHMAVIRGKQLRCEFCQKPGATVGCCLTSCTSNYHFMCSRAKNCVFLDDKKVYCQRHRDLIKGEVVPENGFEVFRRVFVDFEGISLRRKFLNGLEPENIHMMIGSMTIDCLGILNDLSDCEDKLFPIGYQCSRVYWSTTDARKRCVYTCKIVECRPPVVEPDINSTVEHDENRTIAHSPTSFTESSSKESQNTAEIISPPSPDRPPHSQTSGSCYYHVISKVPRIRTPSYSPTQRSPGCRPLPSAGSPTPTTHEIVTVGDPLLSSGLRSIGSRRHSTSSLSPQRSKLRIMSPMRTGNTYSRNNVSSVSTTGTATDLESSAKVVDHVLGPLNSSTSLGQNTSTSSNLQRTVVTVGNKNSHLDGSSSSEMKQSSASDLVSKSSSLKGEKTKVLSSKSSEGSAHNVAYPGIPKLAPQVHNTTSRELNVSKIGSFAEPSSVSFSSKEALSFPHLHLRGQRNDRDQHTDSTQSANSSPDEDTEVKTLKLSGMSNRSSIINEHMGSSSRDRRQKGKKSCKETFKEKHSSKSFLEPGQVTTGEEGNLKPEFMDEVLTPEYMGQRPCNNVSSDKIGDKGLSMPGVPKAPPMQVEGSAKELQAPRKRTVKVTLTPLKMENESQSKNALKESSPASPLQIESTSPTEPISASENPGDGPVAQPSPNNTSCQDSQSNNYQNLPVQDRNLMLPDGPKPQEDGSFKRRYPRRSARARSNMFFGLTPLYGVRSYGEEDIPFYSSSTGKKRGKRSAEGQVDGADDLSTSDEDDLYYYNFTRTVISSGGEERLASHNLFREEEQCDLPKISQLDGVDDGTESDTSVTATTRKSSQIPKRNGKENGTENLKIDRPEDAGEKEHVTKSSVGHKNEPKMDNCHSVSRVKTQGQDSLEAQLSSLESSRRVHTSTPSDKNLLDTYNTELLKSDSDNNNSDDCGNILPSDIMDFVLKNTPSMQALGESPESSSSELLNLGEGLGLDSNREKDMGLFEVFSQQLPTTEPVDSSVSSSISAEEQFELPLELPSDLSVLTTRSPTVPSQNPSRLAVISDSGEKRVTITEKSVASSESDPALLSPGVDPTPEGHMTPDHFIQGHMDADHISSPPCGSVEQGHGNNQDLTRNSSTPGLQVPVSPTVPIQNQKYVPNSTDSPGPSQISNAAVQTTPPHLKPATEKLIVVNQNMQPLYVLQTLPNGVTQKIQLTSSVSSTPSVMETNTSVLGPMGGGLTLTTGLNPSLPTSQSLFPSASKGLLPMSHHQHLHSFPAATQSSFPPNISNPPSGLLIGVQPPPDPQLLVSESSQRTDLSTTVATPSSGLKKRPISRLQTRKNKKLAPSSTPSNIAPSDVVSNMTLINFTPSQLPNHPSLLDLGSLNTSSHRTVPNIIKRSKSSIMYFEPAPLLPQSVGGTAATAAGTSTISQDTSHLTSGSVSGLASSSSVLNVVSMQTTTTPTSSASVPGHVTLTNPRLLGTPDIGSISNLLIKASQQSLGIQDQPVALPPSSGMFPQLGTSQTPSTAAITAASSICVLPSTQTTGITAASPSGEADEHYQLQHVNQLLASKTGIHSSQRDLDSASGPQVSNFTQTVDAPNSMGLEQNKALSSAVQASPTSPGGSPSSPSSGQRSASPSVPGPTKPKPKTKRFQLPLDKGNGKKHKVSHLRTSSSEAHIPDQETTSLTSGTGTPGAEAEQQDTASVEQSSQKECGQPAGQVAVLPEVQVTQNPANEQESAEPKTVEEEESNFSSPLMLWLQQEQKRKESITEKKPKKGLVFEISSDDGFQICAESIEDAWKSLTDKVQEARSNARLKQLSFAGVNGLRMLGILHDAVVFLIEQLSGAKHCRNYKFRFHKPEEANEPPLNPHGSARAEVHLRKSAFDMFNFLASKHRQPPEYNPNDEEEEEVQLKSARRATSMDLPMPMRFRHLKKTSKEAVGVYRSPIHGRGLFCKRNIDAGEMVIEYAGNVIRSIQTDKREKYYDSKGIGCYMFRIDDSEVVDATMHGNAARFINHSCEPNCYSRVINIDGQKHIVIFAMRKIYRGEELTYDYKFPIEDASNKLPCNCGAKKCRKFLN

Row | Structure (SMILES) | activity change, negative = inhibition | Potency
1 | COc1ccc(/C=C/C(=O)NCCCN2CCCCCC2)cc1 | inactive: 7.36% | –
2 | COc1ccc(CNCCNC(=O)c2cccs2)c(OC)c1OC | – | inconclusive: 14.1 µM [inhibitor, single point]
3 | Cc1ccc(S(=O)(=O)Oc2ccc(/C=N/NC(=O)c3ccncc3)cc2)cc1 | – | inconclusive: 10 µM [fluorescent, side channel, single point]
4 | N#Cc1ccc(S(=O)(=O)N2CCCN(c3nc4ccc(Cl)cc4s3)CC2)cc1 | – | inconclusive: 1 µM [quencher, side channel, full curve, poor fit]
5 | N#C/C(=C\C1=C(N2CCOCC2)C(=C\c2ccccc2)/CC1)C(=O)Nc1ccccc1F | – | inconclusive: 7.94 µM [fluorescent, side channel, full curve]
6 | CCN1CCN(CCNC(=O)c2ccc3c(c2)N(Cc2ccc(F)cc2)C(=O)/C(=C/c2ccccc2)S3)CC1 | – | inconclusive: 63.1 µM [quencher, side channel, single point]
7 | CN(C)C=Nc1nc2ccccc2nc1N1CCCC1 | – | inconclusive: 31.6 µM [fluorescent, side channel, partial curve]
8 | Cn1ncc(Cl)c1C(=O)N1CCN(c2ccccc2)CC1 | – | inconclusive: 8.91 µM [fluorescent, side channel, single point]
9 | Cc1nc2c(C#N)cnn2c2c1CCN(Cc1ccccc1)N2C | – | inconclusive: 35.5 µM [fluorescent, side channel, single point]
10 | O=C(CCc1nnc2ccc(NCc3ccco3)nn12)Nc1cccc(F)c1 | – | inconclusive: 11.2 µM [quencher, side channel, single point]
11 | Nc1nc(SCC(=O)Nc2ccc(Br)cc2F)n[nH]1 | inactive: 3.17% | –
12 | O=C(O)C(O)c1ccco1 (stereo unspecified) | – | inconclusive: 39.8 µM [inhibitor, single point]
13 | CC(C)C(=O)NC(=S)Nc1ccc(S(=O)(=O)NC2CCCCC2)cc1 | – | inconclusive: 1.12 µM [fluorescent, side channel, full curve]
14 | O=C(CC(=O)c1c(F)cccc1Cl)c1ccccc1O | – | inconclusive: 70.8 µM [fluorescent, side channel, single point]
15 | O=C(O)CN1CCN(Cc2ccccc2)C1=O | – | inconclusive: 10 µM [fluorescent, side channel, single point]
17 | Cc1ccc(C2Nc3ccc4ccccc4c3C3=C2C(=O)CC(C)(C)C3)o1 (stereo unspecified) | inactive: 19% | –
18 | COc1cc(/C=C2/SC(=Nc3ccc(O)cc3)NC2=O)cc(OC)c1O | – | inconclusive: 25.1 µM [fluorescent, side channel, partial curve]
19 | O=C(Cn1c2ccccc2c(=O)c2ccccc21)N/N=C/c1cc([N+](=O)[O-])ccc1N1CCCCCC1 | inactive: 1.48% | –
20 | CCOc1ccccc1-n1c(SCC(=O)Nc2ccccc2C(=O)O)nc2ccccc2c1=O | – | inconclusive: 35.5 µM [quencher, side channel, single point]
21 | COc1cc(C(=O)NCCOc2ccccc2)cc(OC)c1OC | – | inconclusive: 63.1 µM [fluorescent, side channel, single point]

Row | Structure (SMILES) | activity change, negative = inhibition | Potency
22 | O=C(Nc1ccc(Cl)cc1F)C1CC1 | – | inconclusive: 31.6 µM [fluorescent, side channel, partial curve]
23 | COc1ccc(CCn2c(S)nc3ccccc3c2=O)cc1 | – | inconclusive: 10 µM [fluorescent, side channel, single point]
24 | COc1ccc(-c2nnc(SCC(=O)NCCC(C)C)nc2-c2ccc(OC)c(OC)c2)cc1OC | – | inconclusive: 8.91 µM [inhibitor, single point]
25 | CCO[C@H]1OC(C(=O)N2CCN(Cc3ccccc3)CC2)=C[C@@H](c2ccccc2)[C@@H]1CCCO | – | inconclusive: 63.1 µM [inhibitor, single point]
26 | Cc1ccc(C2C(C(=O)c3cccs3)=C(O)C(=O)N2c2nnc(C)s2)cc1 (stereo unspecified) | – | inconclusive: 28.2 µM [fluorescent, side channel, partial curve]
27 | O=C1/C(=C\c2cccnc2)CCc2ccccc21 | – | inconclusive: 31.6 µM [inhibitor, partial curve]
28 | O=C(Nc1ccc(C(=O)O)c(O)c1)c1ccccc1 | – | inconclusive: 63.1 µM [fluorescent, side channel, single point]
29 | CC(C)(C)c1ccc(C(=O)NCCOc2ccccc2F)cc1 | – | inconclusive: 39.8 µM [inhibitor, single point]
30 | O=C(O)c1ccc(-c2nc3scc(-c4ccccc4)c3c(=O)[nH]2)cc1 | – | inconclusive: 15.8 µM [inhibitor, single point]
31 | O=C(NC1CCCCC1)N1CCN(C2CCCCC2)CC1 | inactive: 4.5% | –
32 | COc1cc(NCc2ccccc2O)c2ncccc2c1 | – | inconclusive: 1 µM [fluorescent, side channel, full curve]
33 | COc1ccc(N2CCN(c3ccc(C(N)=O)cc3[N+](=O)[O-])CC2)cc1 | inactive: -0.403% | –
34 | O=[N+]([O-])c1cc(C(F)(F)F)ccc1NCCc1c[nH]c2ccccc12 | inactive: 6.82% | –
35 | COc1ccc(N/N=C(\C#N)C(=N)N2CCCCC2)cc1 | – | inconclusive: 1 µM [inhibitor, full curve, poor fit]
36 | COc1ccc(C2(C)NC(=O)N(CC(=O)Nc3ccc(-c4nc5ccc(C)cc5s4)cc3)C2=O)cc1 (stereo unspecified) | – | inconclusive: 35.5 µM [fluorescent, side channel, partial curve]
37 | Cc1c(NC(=O)COc2cccc3c2OC(C)(C)C3)c(=O)n(-c2ccccc2)n1C | inactive: 3.31% | –
38 | COc1ccc(N2CCN(Cc3cc(=O)oc4c3ccc3ccccc34)CC2)cc1 | – | inconclusive: 14.1 µM [fluorescent, side channel, full curve, poor fit]
39 | COc1ccc2nc(-c3ccco3)c(-c3ccco3)nc2c1 | – | inconclusive: 28.2 µM [inhibitor, partial curve]
40 | CCN(CC)CCN(C(=O)C1=COCCO1)c1nc2cc(C)cc(C)c2s1 | – | inconclusive: 14.1 µM [fluorescent, side channel, single point]
41 | CCC1CCCCN1S(=O)(=O)c1ccc(NC(=O)c2nc(S(C)(=O)=O)ncc2Cl)cc1 (stereo unspecified) | – | inconclusive: 39.8 µM [quencher, side channel, single point]
42 | NC(=S)NN=C(Cc1ccccc1)Cc1ccccc1 | – | inconclusive: 70.8 µM [inhibitor, single point]

Row | Structure (SMILES) | activity change, negative = inhibition | Potency
43 | O=C(CSc1ccc(-c2cccnc2)nn1)Nc1ccc(F)c(F)c1 | – | inconclusive: 89.1 µM [fluorescent, side channel, single point]
44 | CCN1CCN(Cc2c(O)ccc3c2O/C(=C\C=C\c2ccccc2OC)C3=O)CC1 | – | inconclusive: 35.5 µM [fluorescent, side channel, partial curve]
45 | Cn1cccc1C1C(C#N)=C(N)OC2=C1C(=O)CCC2 (stereo unspecified) | – | inconclusive: 31.6 µM [inhibitor, partial curve]
46 | Cn1c(COc2ccc([N+](=O)[O-])cc2)nnc1SCC(N)=O | – | inconclusive: 15.8 µM [fluorescent, side channel, partial curve]
47 | CC(=O)OCCn1c2nc(=O)[nH]c(=O)c-2nc2cc(C)c(C)cc21 | – | inconclusive: 2.82 µM [fluorescent, side channel, full curve]
48 | COc1ccccc1Nc1nc(N)nc(CN2CCC(Cc3ccccc3)CC2)n1 | inactive: 18.1% | –
49 | COC(=O)CN(C)C(=O)c1ccccc1OC1CCN(S(C)(=O)=O)CC1 | inactive: -2.36% | –
50 | C(=N\Nc1nc2ccccc2s1)/c1cccs1 | inactive: -7.67% | –
51 | CC(C)NC(=O)c1sc2nc(-c3cccs3)cc(-c3cccs3)c2c1N | – | inconclusive: 35.5 µM [fluorescent, side channel, partial curve]
52 | CC(=O)c1ccc(NC(=O)CSc2nc(N)c3cc4c(nc3n2)CCCC4)cc1 | inactive: 3.84% | –
53 | CN(C)c1ccc(/C=C/C(=O)c2c(O)c3ccccc3oc2=O)cc1 | – | inconclusive: 15.8 µM [fluorescent, side channel, full curve]
54 | COc1ccccc1CNc1nc(-c2cc(C)n(C)c2C)cs1 | – | inconclusive: 35.5 µM [quencher, side channel, partial curve, poor fit]
55 | CC1CCN(c2ccc(C=O)o2)CC1 | inactive: 9.02% | –
56 | O=C1OC(c2ccc3c(c2)OCO3)=N/C1=C\c1ccc(C(=O)O)cc1 | – | inconclusive: 31.6 µM [fluorescent, side channel, partial curve]
57 | Cc1cc(C)c(OCCCNCc2ccccc2)c(Br)c1 | – | inconclusive: 31.6 µM [quencher, side channel, partial curve]
58 | CN(C)C(=O)c1cc(C(=O)c2ccc(F)cc2C(F)(F)F)c[nH]1 | – | inconclusive: 44.7 µM [fluorescent, side channel, partial curve]
59 | CCN(CC)c1ccc(/C=N/NC(=O)CNC(=O)C2COc3ccccc3O2)c(O)c1 (stereo unspecified) | – | inconclusive: 5.01 µM [fluorescent, side channel, partial curve]
60 | O=C(OCC(=O)N1CCCC1=O)c1cccc([N+](=O)[O-])c1 | – | inconclusive: 10 µM [fluorescent, side channel, single point]
61 | Cc1cc(C)n(-c2ccc(S(=O)(=O)N3CCOCC3)cc2[N+](=O)[O-])n1 | inactive: -8.33% | –

Ordered by formula weight (falling): part of the list above.
Row | Structure (SMILES) | activity change, negative = inhibition | Potency
52 | CC(=O)c1ccc(NC(=O)CSc2nc(N)c3cc4c(nc3n2)CCCC4)cc1 | inactive: 3.84% | –
43 | O=C(CSc1ccc(-c2cccnc2)nn1)Nc1ccc(F)c(F)c1 | – | inconclusive: 89.1 µM [fluorescent, side channel, single point]
60 | O=C(OCC(=O)N1CCCC1=O)c1cccc([N+](=O)[O-])c1 | – | inconclusive: 10 µM [fluorescent, side channel, single point]
